Experimental data reported in patent publication US12102618B2, “Use of riluzole prodrugs to treat ataxias” (Biohaven Therapeutics Ltd., priority 2017, dated 2024).
At least one structure is not confirmed: it was looked up by name or label, or the drawing left a doubt.

What was measured:
[1] = tested on: patients with Spinocerebellar Ataxia (SCA); test: BHV4157-201 open-label extension phase, interim analysis: modified SARA (axial items); format: in vivo, human
Text: This example describes a study entitled: Interim Extension Phase Analyses of Study BHV4157-201: Phase IIb/III, Randomized, Double-blind, Placebo-controlled Trial of Troriluzole (BHV-4157) in Adult Subjects with Spinocerebellar Ataxia followed by 96-Week Open-Label Extension Phase.
To date, all subjects have had the chance to complete the Week 24 visit from the long term, open-label extension phase of the trial.
BHV4157-201 is an on-going Phase IIb/III, multicenter, randomized, double-blind, 2-arm placebo-controlled parallel-group study designed to assess safety, tolerability, and efficacy in a population of patients with Spinocerebellar Ataxia (SCA). The study is comprised of two periods: an 8-week randomization period, followed by a 96-week open-label extension period. Regarding key entry criteria, subjects were male and female outpatients between the ages of 18-75 years, inclusive, with a known or suspected diagnosis of the following hereditary ataxias: SCA1, SCA2, SCA3, SCA6, SCA7, SCA8 and SCA10. All subjects completed genetic testing to confirm the diagnosis of hereditary ataxias. The primary objective of the study is to compare the efficacy of troriluzole versus placebo on ataxia symptoms in patients with SCA as measured by the total score on the Scale for the Assessment and Rating of Ataxia (SARA). […]

[2] = tested on: ataxia symptoms in subjects with spinocerebellar ataxia (SCA); test: Phase IIb/III randomized, double-blind, placebo-controlled trial of BHV-4157 in SCA (BHV4157-201), 8-week randomization phase: SARA; format: in vivo, human; conditions: numerical improvement
Method: One measure for assessment of the methods of the present invention is by using the Scale for the Assessment and Rating of Ataxia (“SARA”).
The SARA was developed as a clinician-administered instrument to measure severity of symptoms in patients with SCA. While there are multiple scales available, the SARA has been tested in many patients with SCA.
The SARA scores range from 0 (no ataxia) to 40 (severe). The SARA takes approximately 15 minutes to administer. Assessed items include: • Gait (rated 0 to 8) • Stance (0 to 6) • Sitting (0 to 4) • Speech disturbance (0 to 6) • Finger chase (0 to 4) • Nose-finger test (0 to 4) • Fast alternating hand movements (0 to 4) • Heel-shin slide (0 to 4)
Once each of the 8 categories has been assessed, the total score is calculated to determine the severity of ataxia. For motor activities of the four extremities (items 5-8), assessments are performed bilaterally and the mean values are used to obtain the total score.
The purpose of this study is to compare the efficacy of BHV-4157 versus placebo on ataxia symptoms in subjects with spinocerebellar ataxia (SCA). […]

In the case of CN(CC(=O)Nc1nc2ccc(OC(F)(F)F)cc2s1)C(=O)CNC(=O)CN [BHV-4157, troriluzole], the “modified SARA scores, observed changes” value ([1]; all time periods and across sub-groups) is reported as “consistent sustained improvements or lack of decline”, the “axial SARA score” value ([1]; at 48 weeks) is reported as “no decline” and the “primary analysis: total SARA score at Week 8 versus placebo” value [2] is reported as “did not meet the study criteria in differentiating from placebo”.
